Among the data in PubChem BioAssay AID270 (DTP/NCI, 2004) are survivor count and T/C values, retold here.

This assay has as its system BDF1 mice, s.c. Lewis lung carcinoma, T/C %. Description: NCI In Vivo Anticancer Drug Screen. Data for tumor model Lewis Lung Carcinoma (subcutaneous) in B6D2F1 (BDF1) mice. The gist of the method: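 Antitumor effect in vivo is scored from survival or tumor burden, reported as treated relative to vehicle controls.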
[1] abbreviates: T/C endpoint: median survival time, dose: 50.0 mg/kg/injection, schedule: Q01DX009 (ip), vehicle: Klucel (hydroxypropylcellulose) (HPC), higher T/C = longer survival.
Setting [2] is: T/C endpoint: median survival time, dose: 100.0 mg/kg/injection, schedule: Q01DX009 (ip), vehicle: Klucel (hydroxypropylcellulose) (HPC), higher T/C = longer survival.
Where [3] appears, read: T/C endpoint: median survival time, dose: 200.0 mg/kg/injection, schedule: Q01DX009 (ip), vehicle: Klucel (hydroxypropylcellulose) (HPC), higher T/C = longer survival.
[4] abbreviates: T/C endpoint: median survival time, dose: 100.0 mg/kg/injection, schedule: Q01DX009 (ip), vehicle: saline with Tween-80, higher T/C = longer survival.
Where [5] appears, read: T/C endpoint: median survival time, dose: 200.0 mg/kg/injection, schedule: Q01DX009 (ip), vehicle: saline with Tween-80, higher T/C = longer survival.
Setting [6] is: T/C endpoint: median survival time, dose: 400.0 mg/kg/injection, schedule: Q01DX009 (ip), vehicle: saline with Tween-80, higher T/C = longer survival.
The mark [7] stands for this setting: T/C endpoint: mean tumor weight, dose: 25.0 mg/kg/injection, schedule: Q01DX011 (ip), vehicle: saline, higher T/C = larger tumour.
Where [8] appears, read: T/C endpoint: median survival time, dose: 3.13 mg/kg/injection, schedule: Q01DX009 (ip), vehicle: saline with Tween-80, higher T/C = longer survival.
[9] abbreviates: T/C endpoint: mean tumor weight, dose: 100.0 mg/kg/injection, schedule: Q01DX011 (ip), vehicle: saline, higher T/C = larger tumour.

The list does not hold the whole screen: it gathers tests that were run many times, whatever their T/C, doses with no T/C, and many T/C values between a quarter and a half above the control. Further doses and runs are listed elsewhere. T/C is the treated group as % of the vehicle group. Some entries give survivors of the animals treated and no T/C: the source holds a T/C of zero for them, seemingly a mark for toxic or unscored doses. Some survivor counts are full or nearly so, which does not show that the dose was tolerated: the source hardly ever lists a survival T/C far under the control, and the zero likely stands for such cases as well. Survivors were counted at the toxicity check, usually on the fifth day, unless a day is given; later deaths do not show. Schedules are NCI's codes, taken here to give the interval after Q, in days (D) or hours (H), and the number of doses after X. Some entries were tested several times; their values stand side by side, smallest first. For survival time, this PubChem deposit counts one and a half times the control or more as active, and values a quarter to a half above the control carry no call in these data; other NCI protocols may use other cut-offs.

For `O=[N+]([O-])c1ccc([I+]c2ccccc2)cc1`, the survivor count is, setting by setting: under setting [1], 10 of 10; under setting [2], 8 of 10; under setting [3], 4 of 10.

As to `C[C@]12C=CC(=O)C=C1CC[C@@H]1[C@@H]2C(=O)C[C@@]2(C)[C@H]1CC[C@]2(O)C(=O)CO`, the survivor count is, setting by setting: under setting [1], 9 of 10; (T/C endpoint: median survival time, dose: 50.0 mg/kg/injection, schedule: Q01DX009 (ip), vehicle: saline, higher T/C = longer survival) 8 of 8; under setting [2], 10 of 10; under setting [4], 10 of 10; (T/C endpoint: median survival time, dose: 100.0 mg/kg/injection, schedule: Q01DX009 (ip), vehicle: saline, higher T/C = longer survival) 8 of 8; under setting [3], 10 of 10. The survivor count is reported as 10 of 10 under setting [5]; 8 of 8 (T/C endpoint: median survival time, dose: 200.0 mg/kg/injection, schedule: Q01DX009 (ip), vehicle: saline, higher T/C = longer survival); 10 of 10 (T/C endpoint: median survival time, dose: 400.0 mg/kg/injection, schedule: Q01DX009 (ip), vehicle: Klucel (hydroxypropylcellulose) (HPC), higher T/C = longer survival); 10 of 10 under setting [6]; 8 of 8 (T/C endpoint: median survival time, dose: 400.0 mg/kg/injection, schedule: Q01DX009 (ip), vehicle: saline, higher T/C = longer survival); 6 of 10 (T/C endpoint: median tumor weight (est.), dose: 50.0 mg/kg/injection, schedule: Q01DX009 (ip), vehicle: Klucel (hydroxypropylcellulose) (HPC), higher T/C = larger tumour). The survivor count by setting is: (T/C endpoint: median tumor weight (est.), dose: 100.0 mg/kg/injection, schedule: Q01DX009 (ip), vehicle: Klucel (hydroxypropylcellulose) (HPC), higher T/C = larger tumour) 4 of 10; (T/C endpoint: median tumor weight (est.), dose: 100.0 mg/kg/injection, schedule: Q01DX009 (ip), vehicle: saline with Tween-80, higher T/C = larger tumour) 4 of 10; (T/C endpoint: median tumor weight (est.), dose: 200.0 mg/kg/injection, schedule: Q01DX009 (ip), vehicle: Klucel (hydroxypropylcellulose) (HPC), higher T/C = larger tumour) 3 of 10; (T/C endpoint: median tumor weight (est.), dose: 400.0 mg/kg/injection, schedule: Q01DX009 (ip), vehicle: saline with Tween-80, higher T/C = larger tumour) 1 of 10. Moreover, the T/C under setting [4] is 125 % of control.

On to `CC(=O)NC1=C(N2CC2)C(=O)C(NC(C)=O)=C(N2CC2)C1=O`, for which the T/C runs as follows: (T/C endpoint: median survival time, dose: 1.0 mg/kg/injection, schedule: Q01DX005 (ip), vehicle: saline with Tween-80, higher T/C = longer survival) 126 % of control; (T/C endpoint: median survival time, dose: 1.0 mg/kg/injection, schedule: Q01DX009 (ip), vehicle: saline with Tween-80, higher T/C = longer survival) 126 % of control; (T/C endpoint: median survival time, dose: 2.0 mg/kg/injection, schedule: Q01DX005 (ip), vehicle: saline with Tween-80, higher T/C = longer survival) 135 % of control. Also, the survivor count is, setting by setting: (T/C endpoint: median survival time, dose: 2.0 mg/kg/injection, schedule: Q01DX009 (ip), vehicle: saline with Tween-80, higher T/C = longer survival) 10 of 10; (T/C endpoint: median survival time, dose: 4.0 mg/kg/injection, schedule: Q01DX005 (ip), vehicle: saline with Tween-80, higher T/C = longer survival) 10 of 10.

In the case of `COc1ccc(Nc2ccnc3cc(Cl)ccc23)cc1CN(CCCl)CCCl`, the survivor count is 0 of 6 (T/C endpoint: mean tumor weight, dose: 2.0 mg/kg/injection, schedule: Q01DX011 (ip), vehicle: other, higher T/C = larger tumour) and 0 of 6 (T/C endpoint: mean tumor weight, dose: 4.0 mg/kg/injection, schedule: Q01DX011 (ip), vehicle: other, higher T/C = larger tumour).

Take `C[C@]12CCC(=O)C=C1CC[C@@H]1[C@@H]2[C@@H](O)C[C@@]2(C)[C@H]1CC[C@]2(O)C(=O)COC(=O)CCC(=O)O`: the survivor count (T/C endpoint: mean tumor weight, dose: 750.0 mg/kg/injection, schedule: Q01DX011 (sc), vehicle: steroid suspending solution, higher T/C = larger tumour) was 1 of 6 and the survivor count (T/C endpoint: mean tumor weight, dose: 1000.0 mg/kg/injection, schedule: Q01DX011 (sc), vehicle: steroid suspending solution, higher T/C = larger tumour) is 0 of 6.

On to `Oc1ccc(Nc2ccnc3cc(Cl)ccc23)cc1CN(CCCl)CCCl`, for which the T/C (T/C endpoint: median survival time, dose: 1.25 mg/kg/injection, schedule: Q01DX009 (ip), vehicle: saline, higher T/C = longer survival) was 135 % of control. Moreover, the survivor count by setting is: (T/C endpoint: median survival time, dose: 5.0 mg/kg/injection, schedule: Q01DX009 (ip), vehicle: saline, higher T/C = longer survival) 10 of 10; (T/C endpoint: median survival time, dose: 10.0 mg/kg/injection, schedule: Q01DX009 (ip), vehicle: saline, higher T/C = longer survival) 6 of 10.

In the case of `C/C=C/c1cc2n(c1)C(=O)c1cc(OC3OC(C)C(NC)C(C)(O)C3O)c(C)c(O)c1NC2O` (centres undefined), the survivor count is, setting by setting: (T/C endpoint: median survival time, dose: 32.0 micrograms/kg/injection, schedule: Q04DX003 (ip), vehicle: saline, higher T/C = longer survival) 10 of 10; (T/C endpoint: median survival time, dose: 64.0 micrograms/kg/injection, schedule: Q04DX003 (ip), vehicle: saline, higher T/C = longer survival) 1 of 10.

For the molecule `OC(CCl)CN1CC[N+]2(CC1)CC[N+]1(CCN(CC(O)CCl)CC1)CC2` (centres undefined), the T/C (T/C endpoint: median survival time, dose: 160.0 mg/kg/injection, schedule: Q01DX009 (ip), vehicle: saline, higher T/C = longer survival) was 131 % of control. In addition, the survivor count (T/C endpoint: median survival time, dose: 640.0 mg/kg/injection, schedule: Q01DX009 (ip), vehicle: saline, higher T/C = longer survival) is 2 of 10.

Take `O=C(O)CCCc1ccc(N(CCCl)CCCl)cc1`: the survivor count is, setting by setting: (T/C endpoint: mean tumor weight, dose: 15.0 mg/kg/injection, schedule: Q01DX011 (ip), vehicle: carboxymethylcellulose (CMC), higher T/C = larger tumour) 4 of 10; under setting [7], 0 of 6; (T/C endpoint: median survival time, dose: 16.0 mg/kg/injection, schedule: Q01DX009 (ip), vehicle: saline with Tween-80, higher T/C = longer survival) 9 of 10 and 10 of 10; (T/C endpoint: median survival time, dose: 32.0 mg/kg/injection, schedule: Q01DX009 (ip), vehicle: saline with Tween-80, higher T/C = longer survival) 1 of 10; (T/C endpoint: median survival time, dose: 32.0 mg/kg/injection, schedule: Q04DX003 (ip), vehicle: saline with Tween-80, higher T/C = longer survival) 8 of 10; (T/C endpoint: median survival time, dose: 64.0 mg/kg/injection, schedule: Q01DX001 (ip), vehicle: saline with Tween-80, higher T/C = longer survival) 4 of 10. The survivor count (T/C endpoint: median survival time, dose: 64.0 mg/kg/injection, schedule: Q04DX003 (ip), vehicle: saline with Tween-80, higher T/C = longer survival) is reported as 5 of 10. The T/C was 126 % of control (T/C endpoint: median survival time, dose: 4.0 mg/kg/injection, schedule: Q04DX003 (ip), vehicle: saline with Tween-80, higher T/C = longer survival); 139 % of control (T/C endpoint: median survival time, dose: 8.0 mg/kg/injection, schedule: Q04DX003 (ip), vehicle: saline with Tween-80, higher T/C = longer survival); 133 % of control (T/C endpoint: median survival time, dose: 16.0 mg/kg/injection, schedule: Q04DX003 (ip), vehicle: saline with Tween-80, higher T/C = longer survival).

With `CC(=O)OC(C)C1C2=C(C(=O)CC1(C)O)C(=O)c1c(ccc(-c3ccc4c(c3O)C(=O)C3=C(C4=O)C(C(C)OC(C)=O)C(C)(O)CC3=O)c1O)C2=O` (centres undefined), where the note is “T/C endpoint: median survival time, dose: 0.19 mg/kg/injection, schedule: Q01DX009 (ip), vehicle: saline + alcohol, higher T/C = longer survival”, the T/C was 125 % of control. Besides, the survivor count is on record as 10 of 10 under setting [8]; 10 of 10 (T/C endpoint: median survival time, dose: 6.25 mg/kg/injection, schedule: Q01DX009 (ip), vehicle: saline with Tween-80, higher T/C = longer survival); 9 of 10 (T/C endpoint: median survival time, dose: 12.5 mg/kg/injection, schedule: Q01DX009 (ip), vehicle: saline with Tween-80, higher T/C = longer survival); 9 of 10 (T/C endpoint: median survival time, dose: 25.0 mg/kg/injection, schedule: Q01DX009 (ip), vehicle: saline with Tween-80, higher T/C = longer survival).

With `CCCCOB(/C=C/Sc1ccccc1)OCCCC`, the survivor count reads like this: under setting [4], 9 of 10; under setting [5], 9 of 10; under setting [6], 10 of 10.

On to `Nc1ccc(Cl)c(N)c1`, for which the survivor count (T/C endpoint: mean tumor weight, dose: 75.0 mg/kg/injection, schedule: Q01DX011 (ip), vehicle: saline, higher T/C = larger tumour) is 3 of 6.

In the case of `C1CCNC1`, the survivor count under setting [9] is on record as 0 of 6.

On to `COc1cc(-c2ccc(Nc3ccccc3C(=O)O)c(OC)c2)ccc1N`, for which the survivor count (T/C endpoint: mean tumor weight, dose: 80.0 mg/kg/injection, schedule: Q01DX011 (ip), vehicle: carboxymethylcellulose (CMC), higher T/C = larger tumour) was 0 of 6.

On to `Cc1cnc(/C=N\NC(N)=S)c2cccc(N)c12`, for which the T/C is 127 % of control (T/C endpoint: median survival time, dose: 3.12 mg/kg/injection, schedule: Q01DX009 (ip), vehicle: Klucel (hydroxypropylcellulose) (HPC), higher T/C = longer survival) and 125 % of control under setting [8]. Besides, the survivor count (T/C endpoint: median survival time, dose: 50.0 mg/kg/injection, schedule: Q01DX009 (ip), vehicle: saline with Tween-80, higher T/C = longer survival) is listed as 10 of 10.

As for `C[C@@H](N)[C@@H](O)c1ccccc1`, the survivor count is, setting by setting: under setting [7], 0 of 6; (T/C endpoint: mean tumor weight, dose: 50.0 mg/kg/injection, schedule: Q01DX011 (ip), vehicle: saline, higher T/C = larger tumour) 0 of 6; under setting [9], 0 of 6; (T/C endpoint: mean tumor weight, dose: 200.0 mg/kg/injection, schedule: Q01DX011 (ip), vehicle: saline, higher T/C = larger tumour) 0 of 6.
